Assay results as given in patent US20040043498A1, “Reagent for determining singlet oxygen” (priority 2003, published 2004).

Assay: Measurement of singlet oxygen generated by naphthalene endoperoxide EP-1 (fluorescence)
Settings: EP-1 increased from 0.1 mM to 0.5 mM and to 1.0 mM; 100 mM phosphate buffer pH 7.4, 0.1% DMSO, 37° C.

Cc1c2ccccc2c(C)c2cc(-c3c4ccc(=O)cc-4oc4cc(O)ccc34)c(C(=O)O)cc12 [DMAX]
Increase of fluorescence intensity: dependent on the generated amount of singlet oxygen
